Measured values from patent US20220057377A1, “ANALYTICAL METHOD FOR DETERMINATION OF IN VITRO DRUG RELEASE PROFILE FROM MICRONEEDLE PATCHES” (ZOSANO PHARMA CORPORATION, priority 2020, published 2022).
Values joined by “and” are separate entries in the source; they are usually repeats but may differ in a detail not shown here. Equal values may be shown once. The name of at least one read-out is uncertain.

How the values were obtained:
[1] = Stability of zolmitriptan in 10 mM PBS release media; format: physicochemical
Experimental: In order for the drug to have fully released from the patches, a complete release time of 22 hours was noted. Therefore, stability of zolmitriptan in the release medium was evaluated for up to 24 hours.

[2] = Sample solution stability at 2-8° C.; format: physicochemical; details: 15 days at 2-8 C
Experimental: Sample solutions containing the released drug after the drug release tests were stored at 2-8° C. for a few days and injected to check the stability of the solution. Six sample solutions from each time points were aliquoted from release test tube and stored in refrigerator at 2-8 C for 15 days before being analyzed by HPLC. […] For the solution concentration is close to 1×-5× of the quantitation limit, 85%-115% recovery from fresh sample is considered reasonable.

## CN(C)CCc1c[nH]c2ccc(C[C@H]3COC(=O)N3)cc12 [zolmitriptan]
[1]; T0 Concentration 0.49 μg/mL
  % Drug Recovery After 24 hours at 32° C.: 102%
[1]; T0 Concentration 5.00 μg/mL
  % Drug Recovery After 24 hours at 32° C.: 100%
[1]; T0 Concentration 335.94 μg/mL
  % Drug Recovery After 24 hours at 32° C.: 100%
[2]; 1 hour release time point, Average of 6
  % Recovery from Time Zero: 104%
[2]; 1 hour release time point, individual sample
  % Recovery from Time Zero: 105% (4×) and 100% and 104%
[2]; 2 hours release time point, Average of 6
  % Recovery from Time Zero: 102%
[2]; 2 hours release time point, individual sample
  % Recovery from Time Zero: 100% (3×) and 103% (3×)
[2]; 3 hours release time point, Average of 6
  % Recovery from Time Zero: 103%
[2]; 3 hours release time point, individual sample
  % Recovery from Time Zero: 104% (2×) and 103% and 107% and 100% (2×)
[2]; 5 hours release time point, Average of 6
  % Recovery from Time Zero: 101%
[2]; 5 hours release time point, individual sample
  % Recovery from Time Zero: 100% (4×) and 102% and 103%
[2]; 12 hours release time point, Average of 6
  % Recovery from Time Zero: 101%
[2]; 12 hours release time point, individual sample
  % Recovery from Time Zero: 102% (3×) and 98% and 101% and 100%
[2]; 22 hours release time point, Average of 6
  % Recovery from Time Zero: 103%
[2]; 22 hours release time point, individual sample
  % Recovery from Time Zero: 100% (3×) and 104% (2×) and 111%
